Test results from patent publication US8404650B2, “Methods of treating cancer with doxazolidine and prodrugs thereof” (priority 2005, dated 2013).

Test system: MCF-7/Adr cells
Assay: Functional measure of hydrolysis: pre-hydrolysis in RPMI medium or human serum, then growth of MCF-7/Adr cells
Assay type: cell-based
Conditions: start 1000 nM equivalents, RPMI 1640, 37° C.
Experimental: Hydrolysis of Doxaz or DoxF in RPMI medium was performed by dissociating the cells with trypsin/EDTA, counting and then suspending the cells in growth media to a concentration of 5×10^3 cells/mL. This cell suspension was dispensed in 200 μL aliquots (1000 cells/well) into the inside wells of 96-well tissue culture plates. Plates were then incubated for 24 h at 37° C. in a humidified atmosphere of 5% CO2, and 95% air. The medium was replaced with 180 μL of growth medium prior to addition of the drug. RPMI media (no serum added) was divided into 5 mL aliquots in conical vials and heated to 37° C. in a constant temperature bath. Doxaz and DoxF were dissolved in DMSO at a concentration of 1 mM equivalents. The concentration was then corrected by measuring the solution absorbance at 480 nm (ε=11,500 M^−1 cm^−1). Drug solution (50 μl) was added to an individual conical vial and the drug was allowed to hydrolyze (at 10 μM) for 0, 10, 20, 30, 45, 60, 75 or 90 min. Experiments were performed such that all hydrolysis times would end simultaneously. […] The cells were then incubated for 5 days, and the extent of colony formation was determined using a crystal violet staining assay measuring optical density at 588 and 770 nm. […]

SMILES	Time for hydrolysis at which 50% growth inhibition remains
COc1cccc2c1C(=O)c1c(O)c3c(c(O)c1C2=O)C[C@@](O)(C(=O)CO)C[C@@H]3O[C@H]1C[C@@H]2NCO[C@@H]2[C@H](C)O1 [Doxaz, Doxazolidine]	about 8 min
COc1cccc2c1C(=O)c1c(O)c3c(c(O)c1C2=O)C[C@@](O)(C(=O)CO)C[C@@H]3OC1CC2C(OCN2CN2COC3C(C)OC(O[C@H]4C[C@](O)(C(=O)CO)Cc5c(O)c6c(c(O)c54)C(=O)c4c(OC)cccc4C6=O)CC32)C(C)O1 (some centres unmarked) [DoxF, Doxoform, reference compound]	about 13 min
